Data as given in PubChem BioAssay AID686937 (Drosophila RNAi Screening Center, 2013).

Screen: 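Genes whose loss weakens secretory pathway function in fly cells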 (primary screen)
Cell system: Drosophila S2 cells expressing secreted horseradish peroxidase
Reagents: long dsRNA against Drosophila genes
Timing: about 5.5 days (5 days dsRNA, then 12 h reporter induction)
Treatment: reporter expression induced after 5 days of dsRNA, read 12 h later; inducer not stated
Measured: 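After 5 days of dsRNA and 12 h of reporter induction, medium peroxidase read by chemiluminescence and scored as per-plate z-score; higher values mean more reporter released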
Scale: z-score: higher = more reporter secreted into medium
The screen tested about 23,000 reagents; shown is an unselected part of those with a known target gene and a result. 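Reduced-secretion tags in replicate 1 do not always agree with the z-scores; no criterion for assigning the tags was given.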 Names joined by + are all predicted targets of the reagent. Not all columns of the deposit are shown. Reagent sequences are not shown. Not stated in the record: the amount of reagent.

For CG11837 [DRSC14397] the deposit lists z-score, replicate 1 = 0.14.
For ppk11 [DRSC02737] the deposit lists z-score, replicate 1 = 0.38.
Knock-down of CG1307 [DRSC12492] came out at: z-score, replicate 1 = 0.37.
Against Smyd3 [DRSC17744], the values are z-score, replicate 1 = -3.35.
Depletion of CG17780 + CG17781 [DRSC15266] came out at: z-score, replicate 1 = 0.12.
For NP15.6 [DRSC16756], the values are z-score, replicate 1 = 0.3.
Depletion of CG15742 [DRSC19708] resulted in: z-score, replicate 1 = 0.44.
Against Gmppb [DRSC12169] the deposit lists z-score, replicate 1 = 0.19.
eIF4H1 [DRSC20276] scored z-score, replicate 1 = 0.42.
CG17666 [DRSC10276] showed z-score, replicate 1 = 0.24.
For resilin [DRSC05627], the entry reads z-score, replicate 1 = 0.57.
Depletion of resilin [DRSC06595] came out at: z-score, replicate 1 = 0.48.
bw [DRSC04005] showed z-score, replicate 1 = 0.43.
bw [DRSC04677] scored z-score, replicate 1 = 0.02.
With knock-down of mthl3 [DRSC06997] the results were z-score, replicate 1 = 0.12.
For CG10494 [DRSC04072], the entry reads z-score, replicate 1 = 0.21.
Depletion of CG43253 (retired record) [DRSC09529] resulted in: z-score, replicate 1 = 0.62.
CG30161 [DRSC22141] gave z-score, replicate 1 = -0.31.
For sds22 [DRSC17052] the deposit lists z-score, replicate 1 = 0.01.
Silencing of CG15219 [DRSC03715] resulted in: z-score, replicate 1 = -0.19.
After knock-down of CG5664 [DRSC11782], the screen gave z-score, replicate 1 = 0.74.
Against CG30031 + deltaTry + gammaTry [DRSC07622], the values are z-score, replicate 1 = 0.49.
Against Pits [DRSC19385], the values are z-score, replicate 1 = -1.84.
Depletion of Pits [DRSC19812] came out at: z-score, replicate 1 = 0.32.
For CG34051 [DRSC01739] the deposit lists z-score, replicate 1 = 0.26.
Against Mhcl [DRSC13130] the deposit lists z-score, replicate 1 = 0.16.
For Mhcl [DRSC14216] the deposit lists z-score, replicate 1 = 0.17.
Silencing of Mhcl [DRSC16753] came out at: z-score, replicate 1 = 0.41.
CR33315 [DRSC22947] gave z-score, replicate 1 = -0.52.
Knock-down of CG33282 [DRSC00422] resulted in: z-score, replicate 1 = 0.32.
fal [DRSC11087] scored z-score, replicate 1 = 0.25.
Depletion of Not10 [DRSC14129] resulted in: z-score, replicate 1 = 0.34.
After knock-down of fl(2)d [DRSC07620], the screen gave z-score, replicate 1 = 0.24.
For Mst89B [DRSC16748] the deposit lists z-score, replicate 1 = 0.28.
CG7024 [DRSC18414] scored z-score, replicate 1 = 0.29.
With knock-down of CG5510 [DRSC15823] the results were z-score, replicate 1 = -0.12.
Depletion of Rpn7 [DRSC16841] gave: z-score, replicate 1 = -6.72.
For WDR79 [DRSC03159], the entry reads z-score, replicate 1 = 0.49.
Irk2 [DRSC15569] gave z-score, replicate 1 = 0.29.
Against Sbp2 [DRSC10766], the entry reads z-score, replicate 1 = 0.27.
For RpS19b [DRSC15773], the entry reads z-score, replicate 1 = -0.51.
Act79B [DRSC11604] gave z-score, replicate 1 = -0.33.
CG13231 [DRSC06351] showed z-score, replicate 1 = 0.42.
For CG12219 [DRSC17829], the entry reads z-score, replicate 1 = 0.37.
Depletion of CG42747 [DRSC10209] resulted in: z-score, replicate 1 = 0.48.
CG42747 [DRSC10210] gave z-score, replicate 1 = 0.55.
Knock-down of snRNA:U4atac [DRSC12055] gave: z-score, replicate 1 = 0.61.
CG13300 [DRSC09974] gave z-score, replicate 1 = 0.66.
Against CG31650 [DRSC03140], the values are z-score, replicate 1 = -0.96.
Depletion of CG9517 (retired record) [DRSC20192] resulted in: z-score, replicate 1 = 0.18.
After knock-down of CG9517 (retired record) [DRSC20193], the screen gave z-score, replicate 1 = 0.17.

Laid out differently: entries from further up.
resilin [DRSC06595]
- z-score, replicate 1: 0.48

bw [DRSC04005]
- z-score, replicate 1: 0.43

bw [DRSC04677]
- z-score, replicate 1: 0.02

mthl3 [DRSC06997]
- z-score, replicate 1: 0.12

CG10494 [DRSC04072]
- z-score, replicate 1: 0.21

CG43253 (retired record) [DRSC09529]
- z-score, replicate 1: 0.62

CG30161 [DRSC22141]
- z-score, replicate 1: -0.31
